The other results are listed elsewhere or left out. Most values lie at the level of the controls, where differences are scatter.
Compound: Cc1nc(Nc2ncc(C(=O)Nc3c(C)cccc3Cl)s2)cc(N2CCN(CCO)CC2)n1 [dasatinib]
Assay: log2 fold change of tryptic peptide abundance, ligand vs vehicle (limited proteolysis) (log2 ratio); higher = more trypsin-susceptible (destabilized)
Details: ligand concentration: 5 uM; sample: K562 cleared lysate

Sequences of proteins named here, by UniProt entry; tags and fusion partners are left off. A change or cut given only in a name is not applied to a line headed by its entry.
UniProt O15160, whole entry: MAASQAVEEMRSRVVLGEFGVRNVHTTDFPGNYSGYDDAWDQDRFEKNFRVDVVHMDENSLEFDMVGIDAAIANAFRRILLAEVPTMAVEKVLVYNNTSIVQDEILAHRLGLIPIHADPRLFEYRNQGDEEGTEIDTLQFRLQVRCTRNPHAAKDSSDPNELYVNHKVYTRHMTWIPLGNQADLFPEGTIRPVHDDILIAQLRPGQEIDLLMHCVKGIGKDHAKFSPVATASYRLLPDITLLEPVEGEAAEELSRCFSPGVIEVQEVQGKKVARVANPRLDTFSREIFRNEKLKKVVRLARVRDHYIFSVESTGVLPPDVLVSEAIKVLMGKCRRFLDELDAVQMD
UniProt O14646: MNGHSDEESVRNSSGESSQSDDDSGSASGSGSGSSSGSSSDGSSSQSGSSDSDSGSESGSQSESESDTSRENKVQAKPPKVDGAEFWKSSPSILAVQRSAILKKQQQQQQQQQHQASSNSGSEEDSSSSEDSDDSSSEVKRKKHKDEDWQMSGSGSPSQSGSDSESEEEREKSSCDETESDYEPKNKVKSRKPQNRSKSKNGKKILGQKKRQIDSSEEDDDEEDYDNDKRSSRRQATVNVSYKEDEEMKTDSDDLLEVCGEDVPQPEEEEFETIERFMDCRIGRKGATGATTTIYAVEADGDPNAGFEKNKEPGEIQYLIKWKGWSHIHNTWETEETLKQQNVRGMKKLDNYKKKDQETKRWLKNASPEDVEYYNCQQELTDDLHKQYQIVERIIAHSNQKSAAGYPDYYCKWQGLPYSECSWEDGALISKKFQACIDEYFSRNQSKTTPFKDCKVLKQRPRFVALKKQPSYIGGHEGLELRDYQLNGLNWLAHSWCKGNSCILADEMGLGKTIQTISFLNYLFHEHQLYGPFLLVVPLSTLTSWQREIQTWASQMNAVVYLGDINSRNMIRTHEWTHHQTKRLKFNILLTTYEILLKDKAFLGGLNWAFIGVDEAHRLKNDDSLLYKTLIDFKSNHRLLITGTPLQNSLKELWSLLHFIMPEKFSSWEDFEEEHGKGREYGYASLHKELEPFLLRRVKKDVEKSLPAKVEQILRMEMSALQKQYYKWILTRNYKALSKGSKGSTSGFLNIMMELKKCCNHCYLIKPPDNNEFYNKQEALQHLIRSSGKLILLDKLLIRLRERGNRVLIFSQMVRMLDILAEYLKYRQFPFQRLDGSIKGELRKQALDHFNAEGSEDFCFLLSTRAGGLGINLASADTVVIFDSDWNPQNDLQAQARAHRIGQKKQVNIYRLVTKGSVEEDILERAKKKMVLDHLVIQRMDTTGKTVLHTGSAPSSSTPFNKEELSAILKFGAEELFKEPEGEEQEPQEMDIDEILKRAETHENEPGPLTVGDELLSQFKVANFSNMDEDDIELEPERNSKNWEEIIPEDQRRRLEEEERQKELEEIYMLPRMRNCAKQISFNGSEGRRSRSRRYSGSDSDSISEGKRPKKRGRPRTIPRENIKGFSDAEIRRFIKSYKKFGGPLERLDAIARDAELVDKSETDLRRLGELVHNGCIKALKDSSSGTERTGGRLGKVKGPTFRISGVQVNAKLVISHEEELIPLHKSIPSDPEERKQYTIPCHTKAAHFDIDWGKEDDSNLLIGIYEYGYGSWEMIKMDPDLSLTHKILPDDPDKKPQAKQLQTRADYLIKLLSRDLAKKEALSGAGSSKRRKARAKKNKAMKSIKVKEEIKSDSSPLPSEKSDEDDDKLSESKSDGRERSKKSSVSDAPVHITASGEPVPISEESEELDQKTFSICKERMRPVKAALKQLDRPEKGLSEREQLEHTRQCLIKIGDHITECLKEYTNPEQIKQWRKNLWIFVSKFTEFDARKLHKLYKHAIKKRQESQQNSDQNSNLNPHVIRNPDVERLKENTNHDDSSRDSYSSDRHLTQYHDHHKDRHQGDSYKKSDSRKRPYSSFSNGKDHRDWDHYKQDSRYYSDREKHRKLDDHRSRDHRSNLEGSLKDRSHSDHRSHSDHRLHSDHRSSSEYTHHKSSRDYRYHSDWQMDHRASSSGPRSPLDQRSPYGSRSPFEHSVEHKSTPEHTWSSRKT
UniProt O15212, whole entry: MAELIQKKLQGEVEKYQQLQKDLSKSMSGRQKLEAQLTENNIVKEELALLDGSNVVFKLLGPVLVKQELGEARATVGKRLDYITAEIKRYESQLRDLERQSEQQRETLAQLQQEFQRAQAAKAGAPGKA
UniProt O00232: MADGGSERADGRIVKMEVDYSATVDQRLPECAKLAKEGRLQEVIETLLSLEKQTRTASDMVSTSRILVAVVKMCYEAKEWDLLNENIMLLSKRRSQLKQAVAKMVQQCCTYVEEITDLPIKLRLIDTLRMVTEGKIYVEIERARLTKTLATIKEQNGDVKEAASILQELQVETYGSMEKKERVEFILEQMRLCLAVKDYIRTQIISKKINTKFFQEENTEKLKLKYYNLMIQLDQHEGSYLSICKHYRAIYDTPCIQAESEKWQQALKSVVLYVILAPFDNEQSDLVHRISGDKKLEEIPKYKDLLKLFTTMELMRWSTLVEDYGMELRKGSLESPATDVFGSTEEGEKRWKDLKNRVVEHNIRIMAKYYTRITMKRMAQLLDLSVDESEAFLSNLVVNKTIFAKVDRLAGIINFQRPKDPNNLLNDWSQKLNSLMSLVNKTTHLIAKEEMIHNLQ
UniProt O00268, whole entry: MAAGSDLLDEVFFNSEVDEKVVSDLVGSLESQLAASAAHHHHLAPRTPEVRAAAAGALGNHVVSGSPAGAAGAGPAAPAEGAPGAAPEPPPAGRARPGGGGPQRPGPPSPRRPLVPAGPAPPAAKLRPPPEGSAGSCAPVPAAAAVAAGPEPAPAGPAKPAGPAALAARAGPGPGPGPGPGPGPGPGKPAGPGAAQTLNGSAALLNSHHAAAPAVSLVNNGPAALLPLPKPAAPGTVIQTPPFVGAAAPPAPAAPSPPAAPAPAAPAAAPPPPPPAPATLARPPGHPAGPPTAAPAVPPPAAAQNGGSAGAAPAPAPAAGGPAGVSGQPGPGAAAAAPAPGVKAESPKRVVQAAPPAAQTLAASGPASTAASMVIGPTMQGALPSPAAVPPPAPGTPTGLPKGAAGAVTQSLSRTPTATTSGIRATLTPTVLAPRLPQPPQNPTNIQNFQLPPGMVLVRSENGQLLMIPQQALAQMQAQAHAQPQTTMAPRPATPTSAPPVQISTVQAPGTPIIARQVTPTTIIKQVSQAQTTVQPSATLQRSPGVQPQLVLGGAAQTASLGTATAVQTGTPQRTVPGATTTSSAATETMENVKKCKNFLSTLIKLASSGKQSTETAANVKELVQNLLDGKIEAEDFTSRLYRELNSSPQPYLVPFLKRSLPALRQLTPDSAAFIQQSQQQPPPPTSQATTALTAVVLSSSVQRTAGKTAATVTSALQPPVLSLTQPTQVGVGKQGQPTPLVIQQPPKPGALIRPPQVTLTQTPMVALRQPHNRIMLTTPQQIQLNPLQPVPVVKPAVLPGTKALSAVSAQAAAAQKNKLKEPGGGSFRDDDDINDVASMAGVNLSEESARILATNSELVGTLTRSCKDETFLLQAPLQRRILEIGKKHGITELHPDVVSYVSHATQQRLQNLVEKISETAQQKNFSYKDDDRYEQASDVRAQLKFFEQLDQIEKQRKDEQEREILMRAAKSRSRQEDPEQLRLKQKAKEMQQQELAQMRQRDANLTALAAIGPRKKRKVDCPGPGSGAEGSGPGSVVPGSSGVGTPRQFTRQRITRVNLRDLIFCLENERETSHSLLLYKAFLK
UniProt A8MYV0: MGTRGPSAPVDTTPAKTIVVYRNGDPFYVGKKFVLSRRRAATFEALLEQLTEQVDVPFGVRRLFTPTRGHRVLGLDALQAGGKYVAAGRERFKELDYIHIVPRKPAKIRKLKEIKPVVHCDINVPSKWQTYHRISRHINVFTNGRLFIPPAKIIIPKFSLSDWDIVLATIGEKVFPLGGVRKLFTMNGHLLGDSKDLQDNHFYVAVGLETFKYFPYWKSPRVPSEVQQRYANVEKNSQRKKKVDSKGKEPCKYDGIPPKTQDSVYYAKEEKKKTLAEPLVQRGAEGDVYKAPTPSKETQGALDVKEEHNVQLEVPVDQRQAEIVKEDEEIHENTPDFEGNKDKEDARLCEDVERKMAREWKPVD
UniProt O00330, whole entry: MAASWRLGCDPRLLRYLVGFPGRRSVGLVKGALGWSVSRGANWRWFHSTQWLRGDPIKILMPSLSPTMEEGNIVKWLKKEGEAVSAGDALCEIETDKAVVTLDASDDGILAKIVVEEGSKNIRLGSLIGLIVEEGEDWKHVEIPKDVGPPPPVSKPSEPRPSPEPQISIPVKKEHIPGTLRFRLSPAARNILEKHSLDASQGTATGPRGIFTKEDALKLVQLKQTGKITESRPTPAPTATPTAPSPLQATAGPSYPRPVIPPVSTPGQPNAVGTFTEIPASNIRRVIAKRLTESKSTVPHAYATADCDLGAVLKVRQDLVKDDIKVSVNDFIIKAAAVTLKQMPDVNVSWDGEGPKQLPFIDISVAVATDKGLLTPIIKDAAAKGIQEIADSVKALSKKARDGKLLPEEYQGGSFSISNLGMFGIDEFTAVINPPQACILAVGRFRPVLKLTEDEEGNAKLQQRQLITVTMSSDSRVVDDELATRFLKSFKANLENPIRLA
UniProt O14545: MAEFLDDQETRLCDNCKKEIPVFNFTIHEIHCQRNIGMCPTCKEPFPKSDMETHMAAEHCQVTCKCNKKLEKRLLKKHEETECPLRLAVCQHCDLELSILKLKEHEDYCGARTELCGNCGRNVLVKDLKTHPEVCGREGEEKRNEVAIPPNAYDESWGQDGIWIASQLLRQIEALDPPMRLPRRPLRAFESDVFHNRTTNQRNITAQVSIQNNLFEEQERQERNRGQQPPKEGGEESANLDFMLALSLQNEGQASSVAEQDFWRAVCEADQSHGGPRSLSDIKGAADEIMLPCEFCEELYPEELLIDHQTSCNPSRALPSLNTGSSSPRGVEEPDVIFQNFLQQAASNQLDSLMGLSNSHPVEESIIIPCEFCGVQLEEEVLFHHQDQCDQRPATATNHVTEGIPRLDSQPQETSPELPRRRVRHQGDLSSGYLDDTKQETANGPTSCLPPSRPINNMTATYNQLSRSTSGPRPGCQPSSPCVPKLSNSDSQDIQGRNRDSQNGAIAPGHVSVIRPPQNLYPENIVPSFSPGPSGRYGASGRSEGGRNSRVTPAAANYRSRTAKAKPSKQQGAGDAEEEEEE
UniProt O00429, whole entry: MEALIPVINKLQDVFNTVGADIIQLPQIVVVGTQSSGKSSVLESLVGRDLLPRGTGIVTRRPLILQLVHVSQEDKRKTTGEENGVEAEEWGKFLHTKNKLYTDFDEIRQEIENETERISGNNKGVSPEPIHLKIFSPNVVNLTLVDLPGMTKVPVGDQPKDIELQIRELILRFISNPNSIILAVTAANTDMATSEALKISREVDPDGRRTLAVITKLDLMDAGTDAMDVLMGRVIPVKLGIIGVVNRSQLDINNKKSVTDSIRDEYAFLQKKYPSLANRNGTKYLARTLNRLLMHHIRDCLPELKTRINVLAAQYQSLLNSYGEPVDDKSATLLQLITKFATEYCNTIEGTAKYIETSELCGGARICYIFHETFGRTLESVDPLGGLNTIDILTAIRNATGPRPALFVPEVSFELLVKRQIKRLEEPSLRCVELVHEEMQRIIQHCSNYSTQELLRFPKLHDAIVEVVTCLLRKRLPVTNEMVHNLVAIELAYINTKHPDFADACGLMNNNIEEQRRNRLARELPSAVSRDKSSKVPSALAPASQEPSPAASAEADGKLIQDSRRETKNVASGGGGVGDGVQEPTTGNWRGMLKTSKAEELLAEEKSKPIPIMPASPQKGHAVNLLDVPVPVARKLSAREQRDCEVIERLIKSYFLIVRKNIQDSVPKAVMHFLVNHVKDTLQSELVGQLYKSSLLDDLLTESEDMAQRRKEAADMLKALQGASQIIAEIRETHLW
UniProt B2RUZ4: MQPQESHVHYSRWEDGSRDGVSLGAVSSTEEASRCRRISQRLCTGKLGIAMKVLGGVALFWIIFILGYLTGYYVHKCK
UniProt O00483, whole entry: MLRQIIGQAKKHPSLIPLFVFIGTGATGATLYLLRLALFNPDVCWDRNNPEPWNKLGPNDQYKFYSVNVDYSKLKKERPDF

**Q.** “POLR1C (peptide sequence: VVLGEFGVR, peptide start residue: 14) (UniProt O15160)” was tested. Which log2 fold change did it give?
**A.** Its log2 fold change is -0.0392.

**Q.** With “CHD1 (peptide sequence: ELEPFLLR, peptide start residue: 689) (UniProt O14646)” as the target, how does the log2 fold change read?
**A.** Its log2 fold change is -0.283.

**Q.** With “PFDN6 (peptide sequence: AGAPGKA, peptide start residue: 123) (UniProt O15212)” as the target, how does the log2 fold change read?
**A.** The log2 fold change was -0.102.

**Q.** How did the log2 fold change turn out when “PSMD12 (peptide sequence: VEFILEQMR, peptide start residue: 183) (UniProt O00232)” was run?
**A.** Its log2 fold change is -0.25.

**Q.** Which log2 fold change does the source give for “TAF4 (peptide sequence: FFEQLDQIEK, peptide start residue: 946) (UniProt O00268)” here?
**A.** The log2 fold change was 0.101.

**Q.** With “UniProt A8MYV0 (peptide sequence: KMAREWK, peptide start residue: 355)” as the target, how does the log2 fold change read?
**A.** The log2 fold change was -0.0154.

**Q.** With “PDHX (peptide sequence: STVPHAYATADCDLGAVLK, peptide start residue: 296) (UniProt O00330)” as the target, how does the log2 fold change read?
**A.** The log2 fold change was -0.426.

**Q.** For “TRAFD1 (peptide sequence: AFESDVFHNR, peptide start residue: 188) (UniProt O14545)”, which log2 fold change is on record?
**A.** Its log2 fold change is -0.134.

**Q.** “DNM1L (peptide sequence: TTGEENGVEAEEWGKFLHTK, peptide start residue: 78) (UniProt O00429)” was tested. Which log2 fold change did it give?
**A.** The log2 fold change was 0.226.

**Q.** With “SMIM1 (peptide sequence: MQPQESHVHYSR, peptide start residue: 1) (UniProt B2RUZ4)” as the target, how does the log2 fold change read?
**A.** The log2 fold change was 0.0544.

**Q.** For “NDUFA4 (peptide sequence: LGPNDQYK, peptide start residue: 56) (UniProt O00483)”, which log2 fold change is on record?
**A.** Its log2 fold change is -0.0691.

Source: the supplement of paper PMC12819154, “High-throughput peptide-centric local stability assay extends protein–ligand identification to membrane proteins, tissues and bacteria” (Nature Structural & Molecular Biology, 2025)
